Laboratory results: the supplement of paper PMC10849652
This is one part of the list.

Chains of the proteins cited; added tags and fusions are not shown. Lines headed by an entry give the natural chain unless they say otherwise; changes in a name come on top.
UniProt P42126: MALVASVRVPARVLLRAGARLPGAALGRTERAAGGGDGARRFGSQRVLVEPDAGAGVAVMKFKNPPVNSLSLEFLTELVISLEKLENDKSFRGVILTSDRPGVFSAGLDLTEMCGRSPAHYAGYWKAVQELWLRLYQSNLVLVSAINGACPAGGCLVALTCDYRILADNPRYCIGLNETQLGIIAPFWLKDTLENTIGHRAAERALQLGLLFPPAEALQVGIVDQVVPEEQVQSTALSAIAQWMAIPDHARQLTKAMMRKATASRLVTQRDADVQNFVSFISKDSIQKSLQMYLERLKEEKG
UniProt P42892: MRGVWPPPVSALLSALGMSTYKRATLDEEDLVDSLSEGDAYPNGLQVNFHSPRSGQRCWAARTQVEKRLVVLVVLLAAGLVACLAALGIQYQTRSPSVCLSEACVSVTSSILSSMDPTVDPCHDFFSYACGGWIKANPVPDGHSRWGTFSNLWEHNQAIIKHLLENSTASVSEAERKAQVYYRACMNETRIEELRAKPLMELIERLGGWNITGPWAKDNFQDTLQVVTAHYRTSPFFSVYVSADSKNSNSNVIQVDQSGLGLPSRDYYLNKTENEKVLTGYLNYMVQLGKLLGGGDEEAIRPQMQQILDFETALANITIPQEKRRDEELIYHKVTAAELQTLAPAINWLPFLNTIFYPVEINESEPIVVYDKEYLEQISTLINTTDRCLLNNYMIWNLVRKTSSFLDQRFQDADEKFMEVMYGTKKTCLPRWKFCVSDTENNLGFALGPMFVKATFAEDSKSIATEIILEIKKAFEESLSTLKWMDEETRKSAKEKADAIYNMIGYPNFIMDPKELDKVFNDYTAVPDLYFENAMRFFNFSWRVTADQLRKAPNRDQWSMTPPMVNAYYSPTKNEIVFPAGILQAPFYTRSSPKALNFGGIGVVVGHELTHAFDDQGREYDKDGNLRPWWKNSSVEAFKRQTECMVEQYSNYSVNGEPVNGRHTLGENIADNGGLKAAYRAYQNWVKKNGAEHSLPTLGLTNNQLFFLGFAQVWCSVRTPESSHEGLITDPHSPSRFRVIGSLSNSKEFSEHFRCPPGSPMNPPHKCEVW
UniProt Q9NVM6: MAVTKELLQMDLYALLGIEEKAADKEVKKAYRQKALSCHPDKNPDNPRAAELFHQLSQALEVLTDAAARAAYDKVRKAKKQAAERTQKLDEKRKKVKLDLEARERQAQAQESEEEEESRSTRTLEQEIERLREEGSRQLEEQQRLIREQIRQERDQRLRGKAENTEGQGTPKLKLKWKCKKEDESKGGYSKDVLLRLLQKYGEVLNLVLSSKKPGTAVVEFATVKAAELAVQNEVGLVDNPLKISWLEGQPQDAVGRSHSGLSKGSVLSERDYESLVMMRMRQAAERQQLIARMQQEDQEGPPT
UniProt P60981: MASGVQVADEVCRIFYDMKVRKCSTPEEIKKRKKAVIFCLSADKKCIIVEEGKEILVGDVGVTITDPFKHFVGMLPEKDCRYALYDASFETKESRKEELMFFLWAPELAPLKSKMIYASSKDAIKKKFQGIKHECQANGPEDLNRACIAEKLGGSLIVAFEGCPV
UniProt Q13217: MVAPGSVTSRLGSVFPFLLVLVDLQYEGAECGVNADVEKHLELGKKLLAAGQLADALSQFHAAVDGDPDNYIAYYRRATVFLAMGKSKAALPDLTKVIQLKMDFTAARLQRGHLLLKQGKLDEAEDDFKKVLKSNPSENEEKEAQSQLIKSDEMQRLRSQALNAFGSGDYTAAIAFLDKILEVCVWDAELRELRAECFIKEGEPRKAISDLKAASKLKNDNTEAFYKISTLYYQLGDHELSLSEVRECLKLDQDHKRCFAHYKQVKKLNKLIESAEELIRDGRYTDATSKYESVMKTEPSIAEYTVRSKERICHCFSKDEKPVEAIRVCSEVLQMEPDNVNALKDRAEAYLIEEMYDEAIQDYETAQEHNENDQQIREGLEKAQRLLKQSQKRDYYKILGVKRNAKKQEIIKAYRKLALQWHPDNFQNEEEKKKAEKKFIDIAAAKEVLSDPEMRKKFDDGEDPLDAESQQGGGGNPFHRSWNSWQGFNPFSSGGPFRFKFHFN
UniProt Q5JSL3: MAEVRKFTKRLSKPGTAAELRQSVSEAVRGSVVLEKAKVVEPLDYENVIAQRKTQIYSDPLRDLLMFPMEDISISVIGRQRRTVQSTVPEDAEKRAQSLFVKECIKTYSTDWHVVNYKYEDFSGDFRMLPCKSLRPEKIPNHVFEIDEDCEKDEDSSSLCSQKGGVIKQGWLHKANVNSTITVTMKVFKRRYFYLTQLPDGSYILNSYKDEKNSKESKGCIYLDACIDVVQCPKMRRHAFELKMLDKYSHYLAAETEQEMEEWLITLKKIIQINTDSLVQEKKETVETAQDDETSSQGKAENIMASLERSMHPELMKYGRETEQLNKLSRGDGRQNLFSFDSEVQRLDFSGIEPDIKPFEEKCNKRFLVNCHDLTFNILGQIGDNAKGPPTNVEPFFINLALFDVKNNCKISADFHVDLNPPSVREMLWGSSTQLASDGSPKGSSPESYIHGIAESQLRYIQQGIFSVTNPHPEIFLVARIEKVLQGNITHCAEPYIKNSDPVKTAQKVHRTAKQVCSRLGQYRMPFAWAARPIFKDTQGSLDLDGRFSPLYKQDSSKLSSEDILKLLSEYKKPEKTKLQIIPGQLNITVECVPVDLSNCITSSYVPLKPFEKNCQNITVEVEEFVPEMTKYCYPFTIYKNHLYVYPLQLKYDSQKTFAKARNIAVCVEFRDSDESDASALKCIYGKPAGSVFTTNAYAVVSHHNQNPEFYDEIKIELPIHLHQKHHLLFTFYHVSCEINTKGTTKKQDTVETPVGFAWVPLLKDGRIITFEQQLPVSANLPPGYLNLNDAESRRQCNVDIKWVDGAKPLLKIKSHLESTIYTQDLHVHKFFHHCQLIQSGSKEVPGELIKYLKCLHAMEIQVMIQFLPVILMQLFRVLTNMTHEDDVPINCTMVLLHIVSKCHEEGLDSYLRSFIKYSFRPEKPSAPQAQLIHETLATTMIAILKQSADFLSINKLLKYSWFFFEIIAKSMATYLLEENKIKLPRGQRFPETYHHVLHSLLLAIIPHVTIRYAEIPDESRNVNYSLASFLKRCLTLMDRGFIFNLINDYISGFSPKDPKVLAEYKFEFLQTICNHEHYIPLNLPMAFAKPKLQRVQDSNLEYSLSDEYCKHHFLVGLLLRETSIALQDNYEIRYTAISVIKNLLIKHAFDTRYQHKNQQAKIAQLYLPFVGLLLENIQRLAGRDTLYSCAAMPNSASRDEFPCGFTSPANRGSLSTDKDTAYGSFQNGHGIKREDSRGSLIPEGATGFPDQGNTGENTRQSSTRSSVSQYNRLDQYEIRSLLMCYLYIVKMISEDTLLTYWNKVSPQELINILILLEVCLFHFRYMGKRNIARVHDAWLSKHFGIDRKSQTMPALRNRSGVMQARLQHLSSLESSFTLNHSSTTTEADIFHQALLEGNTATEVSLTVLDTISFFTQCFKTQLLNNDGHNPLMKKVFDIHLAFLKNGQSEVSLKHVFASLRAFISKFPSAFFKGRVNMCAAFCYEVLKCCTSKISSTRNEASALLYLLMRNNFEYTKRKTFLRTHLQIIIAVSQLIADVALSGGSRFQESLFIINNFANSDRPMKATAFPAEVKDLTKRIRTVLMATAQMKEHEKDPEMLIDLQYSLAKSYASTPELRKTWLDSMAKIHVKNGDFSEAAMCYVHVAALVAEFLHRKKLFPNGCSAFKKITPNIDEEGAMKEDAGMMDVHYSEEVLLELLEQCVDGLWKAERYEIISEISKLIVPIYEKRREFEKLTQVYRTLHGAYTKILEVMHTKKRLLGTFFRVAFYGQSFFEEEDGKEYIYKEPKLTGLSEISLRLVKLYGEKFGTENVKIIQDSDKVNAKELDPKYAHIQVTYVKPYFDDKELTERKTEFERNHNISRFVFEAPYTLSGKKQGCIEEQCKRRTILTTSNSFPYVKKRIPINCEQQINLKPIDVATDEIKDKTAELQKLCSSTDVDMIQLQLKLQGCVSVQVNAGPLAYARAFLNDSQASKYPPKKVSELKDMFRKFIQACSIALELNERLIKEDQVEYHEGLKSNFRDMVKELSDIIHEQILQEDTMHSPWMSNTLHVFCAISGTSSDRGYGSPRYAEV
UniProt Q9BVJ7: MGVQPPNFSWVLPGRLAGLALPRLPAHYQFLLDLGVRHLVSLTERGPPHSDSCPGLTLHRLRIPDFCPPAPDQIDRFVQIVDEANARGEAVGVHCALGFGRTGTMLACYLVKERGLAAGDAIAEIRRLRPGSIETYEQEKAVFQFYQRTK
UniProt O00559: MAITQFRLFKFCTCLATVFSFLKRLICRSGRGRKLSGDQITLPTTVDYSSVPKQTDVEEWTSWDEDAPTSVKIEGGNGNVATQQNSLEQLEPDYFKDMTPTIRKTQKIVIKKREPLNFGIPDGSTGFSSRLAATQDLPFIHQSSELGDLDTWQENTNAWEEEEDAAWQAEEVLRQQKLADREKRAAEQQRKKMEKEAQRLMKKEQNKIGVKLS
UniProt Q9UBS4: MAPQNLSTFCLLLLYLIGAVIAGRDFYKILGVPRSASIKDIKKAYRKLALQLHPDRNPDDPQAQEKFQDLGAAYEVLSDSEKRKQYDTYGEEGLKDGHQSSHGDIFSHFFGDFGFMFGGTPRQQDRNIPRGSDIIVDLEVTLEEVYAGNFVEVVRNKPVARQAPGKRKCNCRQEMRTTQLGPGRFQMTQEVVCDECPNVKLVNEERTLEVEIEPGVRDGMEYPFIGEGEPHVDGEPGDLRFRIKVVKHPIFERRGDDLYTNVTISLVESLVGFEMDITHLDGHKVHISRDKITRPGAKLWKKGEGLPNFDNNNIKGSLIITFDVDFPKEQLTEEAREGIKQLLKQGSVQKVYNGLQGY
UniProt P33316: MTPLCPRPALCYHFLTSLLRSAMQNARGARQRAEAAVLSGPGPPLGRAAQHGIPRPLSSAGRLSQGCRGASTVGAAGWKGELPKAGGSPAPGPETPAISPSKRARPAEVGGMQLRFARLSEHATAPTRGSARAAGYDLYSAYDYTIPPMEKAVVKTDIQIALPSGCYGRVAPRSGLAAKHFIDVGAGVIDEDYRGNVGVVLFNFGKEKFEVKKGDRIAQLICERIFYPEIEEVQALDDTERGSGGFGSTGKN
UniProt Q14919: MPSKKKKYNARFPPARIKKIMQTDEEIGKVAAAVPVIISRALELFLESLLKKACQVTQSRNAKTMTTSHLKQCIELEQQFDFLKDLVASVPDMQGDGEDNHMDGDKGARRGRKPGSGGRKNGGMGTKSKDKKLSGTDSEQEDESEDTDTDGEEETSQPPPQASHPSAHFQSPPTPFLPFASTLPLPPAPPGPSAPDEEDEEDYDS
UniProt Q9UKB3: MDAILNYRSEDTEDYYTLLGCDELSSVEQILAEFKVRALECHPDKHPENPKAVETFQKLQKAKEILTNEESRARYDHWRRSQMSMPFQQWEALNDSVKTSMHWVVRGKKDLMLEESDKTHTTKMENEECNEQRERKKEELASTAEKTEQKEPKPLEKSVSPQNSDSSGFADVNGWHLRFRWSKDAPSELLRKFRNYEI
UniProt Q8IXB1: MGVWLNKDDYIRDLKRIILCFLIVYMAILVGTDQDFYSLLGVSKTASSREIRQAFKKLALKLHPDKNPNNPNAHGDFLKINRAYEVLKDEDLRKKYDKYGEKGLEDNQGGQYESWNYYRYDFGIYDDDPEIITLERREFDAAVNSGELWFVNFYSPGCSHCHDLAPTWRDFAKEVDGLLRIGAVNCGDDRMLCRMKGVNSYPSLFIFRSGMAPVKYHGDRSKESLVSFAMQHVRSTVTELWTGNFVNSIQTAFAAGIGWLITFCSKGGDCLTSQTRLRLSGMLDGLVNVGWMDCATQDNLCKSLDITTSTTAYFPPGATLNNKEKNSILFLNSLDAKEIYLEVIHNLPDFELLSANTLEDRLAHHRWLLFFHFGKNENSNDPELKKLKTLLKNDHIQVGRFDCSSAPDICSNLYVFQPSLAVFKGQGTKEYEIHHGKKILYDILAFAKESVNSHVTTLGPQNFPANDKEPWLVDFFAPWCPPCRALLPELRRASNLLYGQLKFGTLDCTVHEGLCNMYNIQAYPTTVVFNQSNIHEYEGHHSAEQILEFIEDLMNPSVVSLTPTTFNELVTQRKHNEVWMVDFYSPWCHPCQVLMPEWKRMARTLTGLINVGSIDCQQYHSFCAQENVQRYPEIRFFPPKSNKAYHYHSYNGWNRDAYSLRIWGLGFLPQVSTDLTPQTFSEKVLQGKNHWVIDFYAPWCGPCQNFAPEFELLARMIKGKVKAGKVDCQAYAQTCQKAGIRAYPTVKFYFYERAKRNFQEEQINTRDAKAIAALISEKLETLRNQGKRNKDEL
UniProt Q8WWZ3: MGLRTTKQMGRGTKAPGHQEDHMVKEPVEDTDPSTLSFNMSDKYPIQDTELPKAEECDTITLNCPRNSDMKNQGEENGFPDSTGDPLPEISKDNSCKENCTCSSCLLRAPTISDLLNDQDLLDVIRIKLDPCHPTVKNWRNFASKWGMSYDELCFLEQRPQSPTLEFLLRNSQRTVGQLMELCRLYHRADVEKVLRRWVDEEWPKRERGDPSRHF

compound: C[C@H](C1=CC=C(C=C1)C(=O)NC2=C3C=CNC3=NC=C2)N; experiment: log2 fold change, soluble protein after heating vs DMSO (PISA); higher = thermal stabilisation; K562 cells, 10 uM, 30 min; active = over 0.2 and 3.5 SD of the protein, either way, in both replicates (recomputed)
In short: (§1)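 Aliquots of K562 cells (2×10^6 cells/mL) treated with 10 μM compound for 30 min were heated for 3 min over 48°C-58°C. After pooling and extraction in PBS with 0.5% NP-40 at 4°C, soluble protein from a 21,000xg, 90 min spin was quantified by TMTpro 16plex LC-MS/MS with channel sums equalised. Thermal stability is expressed against control samples, from duplicates, as a log2 fold change.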

log2 fold change, inactive:
DNAJC9 (UniProt Q8WXX5) -0.045, ECI1 (UniProt P42126) -0.034, ECE1 (UniProt P42892) -0.014, DNAJB4 (UniProt Q9UDY4) -0.013, DNAJC17 (UniProt Q9NVM6) 0.016, DPH2 (UniProt Q9BQC3) 0.054, EDEM3 (UniProt Q9BZQ6) 0.089, DSTN (UniProt P60981) -0.051, DNAJC3 (UniProt Q13217) 0.114, DOCK11 (UniProt Q5JSL3) 0.058, DSG2 (UniProt Q14126) -0.079, EDF1 (UniProt O60869) -0.067, DNAJC11 (UniProt Q9NVH1) -0.027, DPH7 (UniProt Q9BTV6) -0.069, DNAJA3 (UniProt Q96EY1) 0.069, DUSP23 (UniProt Q9BVJ7) -0.108, DST (UniProt Q03001) 0.116, DR1 (UniProt Q01658) -0.017, EBAG9 isoform 2 (UniProt O00559) -0.073, DNAJC8 (UniProt O75937) -0.056, DNAJB11 (UniProt Q9UBS4) 0.094, DUT (UniProt P33316) -0.046, DTL (UniProt Q9NZJ0) -0.049, DRAP1 isoform 2 (UniProt Q14919) -0.013, DNAJC12 (UniProt Q9UKB3) 0.006, DNAJC10 (UniProt Q8IXB1) 0.077, DPH6 (UniProt Q7L8W6) 0.006, DPH1 (UniProt Q9BZG8) -0.033, DPP7 (UniProt Q9UHL4) -0.016, ECHS1 (UniProt P30084) -0.114, EDARADD (UniProt Q8WWZ3) -0.006, DTD1 (UniProt Q8TEA8) 0.048, DSC2 (UniProt Q02487) 0.088

compound: C[C@H](Nc1ncnc2nc[nH]c12)c1cc2cccc(Cl)c2c(=O)n1-c1ccccc1 [duvelisib]; experiment: as above
In short: as §1

log2 fold change, inactive:
DNAJC9 (UniProt Q8WXX5) 0.027, ECI1 (UniProt P42126) 0.068, ECE1 (UniProt P42892) -0.204, DNAJB4 (UniProt Q9UDY4) 0.023, DNAJC17 (UniProt Q9NVM6) 0.096, DPH2 (UniProt Q9BQC3) 0.082, EDEM3 (UniProt Q9BZQ6) -0.001, DSTN (UniProt P60981) 0.029, DNAJC3 (UniProt Q13217) 0.004, DOCK11 (UniProt Q5JSL3) 0.035, DSG2 (UniProt Q14126) 0.038, EDF1 (UniProt O60869) 0.024, DNAJC11 (UniProt Q9NVH1) 0.019, DPH7 (UniProt Q9BTV6) 0.077, DNAJA3 (UniProt Q96EY1) 0.082, DUSP23 (UniProt Q9BVJ7) 0.061, DST (UniProt Q03001) 0.122, DR1 (UniProt Q01658) 0.062, EBAG9 isoform 2 (UniProt O00559) 0.019, DNAJC8 (UniProt O75937) 0.036, DNAJB11 (UniProt Q9UBS4) 0.002, DUT (UniProt P33316) 0.06, DTL (UniProt Q9NZJ0) -0.002, DRAP1 isoform 2 (UniProt Q14919) 0.008, DNAJC12 (UniProt Q9UKB3) 0.043, DNAJC10 (UniProt Q8IXB1) -0.034, DPH6 (UniProt Q7L8W6) 0.009, DPH1 (UniProt Q9BZG8) -0.056, DPP7 (UniProt Q9UHL4) 0.001, ECHS1 (UniProt P30084) -0.002, EDARADD (UniProt Q8WWZ3) 0.066, DTD1 (UniProt Q8TEA8) 0.047, DSC2 (UniProt Q02487) 0.078

compound: Cc1cc(Nc2cc(CN3CCOCC3)c3nc(C)c(Cc4ccc(Cl)cc4F)n3n2)n[nH]1 [gandotinib]; experiment: as above
In short: as §1

log2 fold change, inactive:
DNAJC9 (UniProt Q8WXX5) -0.055, ECI1 (UniProt P42126) 0.004, ECE1 (UniProt P42892) -0.193, DNAJB4 (UniProt Q9UDY4) -0.001, DNAJC17 (UniProt Q9NVM6) -0.123, DPH2 (UniProt Q9BQC3) -0.023, EDEM3 (UniProt Q9BZQ6) 0.053, DSTN (UniProt P60981) 0.013, DNAJC3 (UniProt Q13217) 0.044, DOCK11 (UniProt Q5JSL3) -0.044, DSG2 (UniProt Q14126) 0.008, EDF1 (UniProt O60869) -0.045, DNAJC11 (UniProt Q9NVH1) -0.148, DPH7 (UniProt Q9BTV6) -0.023, DNAJA3 (UniProt Q96EY1) 0.086, DUSP23 (UniProt Q9BVJ7) 0.067, DST (UniProt Q03001) 0.048, DR1 (UniProt Q01658) -0.072, EBAG9 isoform 2 (UniProt O00559) -0.024, DNAJC8 (UniProt O75937) -0.074, DNAJB11 (UniProt Q9UBS4) 0.022, DUT (UniProt P33316) -0.033, DTL (UniProt Q9NZJ0) 0.016, DRAP1 isoform 2 (UniProt Q14919) 0.052, DNAJC12 (UniProt Q9UKB3) -0.081, DNAJC10 (UniProt Q8IXB1) 0.104, DPH6 (UniProt Q7L8W6) -0.039, DPH1 (UniProt Q9BZG8) -0.069, DPP7 (UniProt Q9UHL4) -0.017, ECHS1 (UniProt P30084) 0.128, EDARADD (UniProt Q8WWZ3) 0.005, DTD1 (UniProt Q8TEA8) -0.058, DSC2 (UniProt Q02487) 0.188
